We go through 23 molecules from PubChem BioAssay AID330 (DTP/NCI, 2004).

The assay has as its system P388 leukemia ip, CD2F1 mice, survival T/C. Put plainly: NCI In Vivo Anticancer Drug Screen. Data for tumor model P388 Leukemia (intraperitoneal) in CD2F1 (CDF1) mice. Particulars: T/C endpoint: median survival time, higher T/C = longer survival.
Setting [1] is: dose: 100.0 mg/kg/injection, schedule: Q01DX009 (ip), vehicle: saline with Tween-80.
Where [2] appears, read: dose: 50.0 mg/kg/injection, schedule: Q01DX005 (ip), vehicle: saline.
The mark [3] stands for this setting: dose: 100.0 mg/kg/injection, schedule: Q01DX005 (ip), vehicle: saline.
The mark [4] stands for this setting: dose: 200.0 mg/kg/injection, schedule: Q01DX005 (ip), vehicle: saline.
[5] abbreviates: dose: 50.0 mg/kg/injection, schedule: Q01DX005 (ip), vehicle: saline with Tween-80.
Where [6] appears, read: dose: 100.0 mg/kg/injection, schedule: Q01DX005 (ip), vehicle: saline with Tween-80.
[7] abbreviates: dose: 200.0 mg/kg/injection, schedule: Q01DX005 (ip), vehicle: saline with Tween-80.
Where [8] appears, read: dose: 50.0 mg/kg/injection, schedule: Q01DX009 (ip), vehicle: saline with Tween-80.
[9] abbreviates: dose: 200.0 mg/kg/injection, schedule: Q01DX009 (ip), vehicle: saline.
[10] abbreviates: dose: 100.0 mg/kg/injection, schedule: Q01DX005 (ip), vehicle: Klucel (hydroxypropylcellulose) (HPC).
[11] abbreviates: dose: 200.0 mg/kg/injection, schedule: Q01DX005 (ip), vehicle: Klucel (hydroxypropylcellulose) (HPC).

The list does not hold the whole screen: it is rich in T/C values a quarter to a half above the control, in often repeated tests (any T/C) and in doses without a T/C. Other doses and runs of a compound stand elsewhere. T/C is the treated group as % of the vehicle group. Some entries give survivors of the animals treated and no T/C: the source files T/C as zero there, which appears to mark a toxic dose or a test without result, not a measured value. Some doses without a T/C left all or most animals alive at the check, yet need not have been tolerated: survival well below the control is almost never listed, so the zero probably covers shortened survival too. Survivors were counted at the toxicity check, usually on the fifth day, unless a day is given; later deaths do not show. Schedule codes are those of the source, taken here to give the interval after Q, in days (D) or hours (H), and the number of doses after X. Some entries hold several experiments; their values stand side by side, smallest first. Where survival is the endpoint, this PubChem deposit counts one and a half times the control or more as active, and values a quarter to a half above the control carry no call in these data; other NCI protocols may use other cut-offs. Marks such as (2×) count equal records among those shown. Some T/C values are followed by the survivors on the day toxicity was checked, most often the fifth; without a count, all were alive then.

For `COc1ccc(CN2COc3c(cc(C)c4cccnc34)C2)cc1`, the survivor count under setting [1] is 3 of 6.
Take `CCOc1c(Cl)cc(Cl)cc1C(c1ccccc1S(=O)(=O)O)c1cc(Cl)cc(Cl)c1OCC`: for the setting “dose: 25.0 mg/kg/injection, schedule: Q01DX009 (ip), vehicle: saline with Tween-80”, the survivor count is 6 of 6.
For the molecule `CCN(CC)CCNc1cc2ccccc2c2sc3ccccc3c(=O)c12`, the survivor count is 3 of 6 (dose: 100.0 mg/kg/injection, schedule: Q01DX005 (ip), vehicle: distilled water + Tween-80) and 0 of 6 (dose: 200.0 mg/kg/injection, schedule: Q01DX005 (ip), vehicle: distilled water + Tween-80).
As to `c1cc2nc(-c3ccc4cc(C5=NCCN5)[nH]c4c3)[nH]c2cc1C1=NCCN1`, the survivor count is reported as 2 of 6 under setting [2], 0 of 6 under setting [3] and 0 of 6 under setting [4].
Consider `c1ccc2c(NCCCCCNc3c4ccccc4nc4ccccc34)c3ccccc3nc2c1`, for which the T/C (dose: 7.5 mg/kg/injection, schedule: Q01DX009 (ip), vehicle: other) was 126 % of control. For the same molecule, the survivor count (dose: 15.0 mg/kg/injection, schedule: Q01DX009 (ip), vehicle: other) was 3 of 6 and the survivor count (dose: 20.0 mg/kg/injection, schedule: Q01DX009 (ip), vehicle: other) is 1 of 6.
Regarding `CCCn1c2c(c3ccccc3c1=O)C(=O)c1ccccc1-2`, the survivor count by setting is: under setting [5], 5 of 5; under setting [6], 5 of 5; under setting [7], 5 of 5.
Take `CP1(=O)CC(=O)CCCCC(=O)C1`: under setting [8], the survivor count is on record as 6 of 6.
As for `Cc1cc(N=Nc2ccc(NC(=O)c3ccc(N)cc3)cc2C)ccc1N=Nc1ccc2c(O)c(N=Nc3ccc(S(=O)(=O)O)cc3)c(S(=O)(=O)O)cc2c1`, under setting [4], the survivor count is 2 of 6.
As to `CC12NC(=O)NC1(C)NC(=O)N2` (stereo not given), the survivor count under setting [9] was 4 of 6 and the survivor count (dose: 400.0 mg/kg/injection, schedule: Q04DX003 (ip), vehicle: saline) is 0 of 6.
Consider `COc1cccc2c1C(=O)c1c(O)c3c(c(O)c1C2=O)C[C@@](O)(C(C)=O)C[C@@H]3OC1CC(O)C(O)C(C)O1` (stereo not given in full), for which the T/C (dose: 25.0 mg/kg/injection, schedule: Q04DX003 (ip), vehicle: water) was 127 % of control and the T/C (dose: 50.0 mg/kg/injection, schedule: Q04DX003 (ip), vehicle: water) is 147 % of control [5 of 6 alive].
As for `C[C@H]1CC[C@@H]2[C@@H](C)[C@H]3[C@H](C[C@H]4[C@@H]5CC=C6C[C@@H](O)CC[C@]6(C)[C@H]5C[C@H](O)[C@]34C)N2C1`, the T/C is 88, 98, 102, 109, 118 % of control (dose: 50.0 mg/kg/injection, schedule: Q01DX005 (ip), vehicle: Klucel (hydroxypropylcellulose) (HPC)); 93, 99, 102, 107 % of control under setting [10]; 94 and 127 % of control under setting [11]. Moreover, the survivor count by setting is: under setting [10], 2 of 6; under setting [11], 0 of 6 and 1 of 6; (dose: 400.0 mg/kg/injection, schedule: Q01DX005 (ip), vehicle: Klucel (hydroxypropylcellulose) (HPC)) 0 of 6.
For the molecule `NN1C(=O)CS/C1=N\C(=S)N/N=C1/SCC(=O)N1N`, the survivor count was 5 of 6 (dose: 0.19 mg/kg/injection, schedule: Q01DX009 (ip), vehicle: saline); 5 of 6 and 6 of 6 (dose: 0.39 mg/kg/injection, schedule: Q01DX009 (ip), vehicle: saline); 6 of 6 (dose: 0.78 mg/kg/injection, schedule: Q01DX009 (ip), vehicle: saline); 6 of 6 (dose: 1.56 mg/kg/injection, schedule: Q01DX009 (ip), vehicle: saline); 0 of 6 (dose: 3.12 mg/kg/injection, schedule: Q01DX009 (ip), vehicle: saline); 0 of 6 (dose: 6.25 mg/kg/injection, schedule: Q01DX009 (ip), vehicle: saline). Further, the survivor count reads like this: (dose: 12.5 mg/kg/injection, schedule: Q01DX009 (ip), vehicle: saline) 0 of 6; (dose: 25.0 mg/kg/injection, schedule: Q01DX009 (ip), vehicle: saline) 0 of 6; (dose: 50.0 mg/kg/injection, schedule: Q01DX009 (ip), vehicle: saline) 0 of 6; (dose: 100.0 mg/kg/injection, schedule: Q01DX009 (ip), vehicle: saline) 0 of 6; under setting [9], 0 of 6.
For the molecule `COc1nc(Cl)cn(C)c1=O`, the survivor count (dose: 240.0 mg/kg/injection, schedule: Q01DX005 (ip), vehicle: Klucel (hydroxypropylcellulose) (HPC)) is 1 of 6.
For `Cc1ccc(NC2=C([n+]3ccc(C)cc3)C(=O)c3ccccc3C2=O)cc1`, the survivor count was 0 of 6 under setting [5], 0 of 6 under setting [6] and 0 of 6 under setting [7].
In the case of `NC(=O)c1[nH]nc(C2OC(CO)C(O)C2O)c1O` (stereo not given), the T/C runs as follows: (dose: 0.67 mg/kg/injection, schedule: Q01DX009 (ip), vehicle: saline) 126 % of control; (dose: 1.0 mg/kg/injection, schedule: Q01DX009 (ip), vehicle: saline) 129 % of control (2×); (dose: 2.0 mg/kg/injection, schedule: Q01DX009 (ip), vehicle: saline) 132 and 133 % of control. Moreover, the survivor count is, setting by setting: (dose: 1.25 mg/kg/injection, schedule: Q01DX009 (ip), vehicle: saline) 6 of 6; (dose: 2.5 mg/kg/injection, schedule: Q01DX009 (ip), vehicle: saline with Tween-80) 6 of 6; (dose: 5.0 mg/kg/injection, schedule: Q01DX009 (ip), vehicle: saline with Tween-80) 6 of 6; (dose: 10.0 mg/kg/injection, schedule: Q01DX009 (ip), vehicle: saline with Tween-80) 6 of 6; (dose: 20.0 mg/kg/injection, schedule: Q04DX003 (ip), vehicle: saline sonified) 6 of 6; (dose: 40.0 mg/kg/injection, schedule: Q04DX003 (ip), vehicle: saline sonified) 6 of 6.
Consider `CCc1nc(N)nc(N)c1-c1ccc(N)cc1`, for which the survivor count is, setting by setting: under setting [6], 0 of 6; under setting [7], 0 of 6.
As for `CC(O)CCOC(C[N+](=O)[O-])C(Cl)(Cl)Cl` (stereo not given), the survivor count under setting [1] is reported as 6 of 6.
Turning to `C(=NCCN=CC1CCCC[N-]1)C1CCCC[N-]1.[Cu+2].[O-][Cl+3]([O-])([O-])O` (stereo not given), the survivor count was 1 of 6 under setting [8]; 0 of 6 under setting [1]; 0 of 6 (dose: 200.0 mg/kg/injection, schedule: Q01DX009 (ip), vehicle: saline with Tween-80).
For `Cc1ccc(NC(=S)SCc2ccc(Cl)c(Cl)c2)cc1Br`, the survivor count is given as 4 of 6 (dose: 50.0 mg/kg/injection, schedule: Q01DX009 (ip), vehicle: suspension in saline) and 5 of 6 (dose: 100.0 mg/kg/injection, schedule: Q01DX009 (ip), vehicle: suspension in saline).
For `CN1N=Nc2ccccc2C1O` (stereo not given), under setting [11], the survivor count is given as 0 of 6.
Take `CC(C)(C)c1ccc(S(=O)[O][Sn]([CH3])([CH3])[O]S(=O)c2ccc(C(C)(C)C)cc2)cc1` (stereo not given): the survivor count (dose: 100.0 mg/kg/injection, schedule: Q01DX001 (ip), vehicle: Klucel (hydroxypropylcellulose) (HPC)) is 0 of 6 and 1 of 6; the survivor count (dose: 200.0 mg/kg/injection, schedule: Q01DX001 (ip), vehicle: Klucel (hydroxypropylcellulose) (HPC)) is listed as 3 of 6; the survivor count (dose: 400.0 mg/kg/injection, schedule: Q01DX001 (ip), vehicle: Klucel (hydroxypropylcellulose) (HPC)) is 0 of 6.
Take `CCCCN(CCCC)C(=N)c1c2ccccc2nc2ccccc12`: the survivor count under setting [2] is recorded as 1 of 5, the survivor count under setting [3] is 0 of 5 and the survivor count under setting [4] is 0 of 5.
`O=Cc1ccc(NCCCN2CCN(CCCNc3ccc(C=O)c4sc5ccccc5c(=O)c34)CC2)c2c(=O)c3ccccc3sc12`: the survivor count (dose: 25.0 mg/kg/injection, schedule: Q01DX005 (ip), vehicle: saline with Tween-80) is on record as 6 of 6.
